Data from patent US20150328214A1.
These are yes or no findings as the source states them, for the method shown. Some binding calls cover weakened binding; strength is not graded here.

Amino acid sequences for entries named in this document (tags omitted). Residues count along the entry.
UniProt Q12834: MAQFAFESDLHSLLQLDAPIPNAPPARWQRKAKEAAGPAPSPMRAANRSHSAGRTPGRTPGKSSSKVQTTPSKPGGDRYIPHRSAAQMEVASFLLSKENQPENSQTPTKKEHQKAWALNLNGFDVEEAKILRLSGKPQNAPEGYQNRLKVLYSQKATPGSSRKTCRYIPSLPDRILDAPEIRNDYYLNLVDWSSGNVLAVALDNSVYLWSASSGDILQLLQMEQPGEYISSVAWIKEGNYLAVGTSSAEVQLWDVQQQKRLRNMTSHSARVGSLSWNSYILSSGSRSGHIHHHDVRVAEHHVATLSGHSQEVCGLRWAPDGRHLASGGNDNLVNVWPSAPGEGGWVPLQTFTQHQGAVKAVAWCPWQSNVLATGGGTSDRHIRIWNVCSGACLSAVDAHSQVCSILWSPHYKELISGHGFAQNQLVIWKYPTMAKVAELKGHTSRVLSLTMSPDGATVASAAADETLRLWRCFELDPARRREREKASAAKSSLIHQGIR
UniProt P14635, residues 1-88: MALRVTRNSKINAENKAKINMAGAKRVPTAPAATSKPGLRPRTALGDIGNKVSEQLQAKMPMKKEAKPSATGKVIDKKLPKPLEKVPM

Molecular target: human Cdc20 (human) (UniProt Q12834)
Test: competition with binding of in vitro-translated human Cdc20 to apcin-A (small molecule) resin; western blot

binding: binds
Substance: HA-tagged human cyclin B1 N-terminal fragment (residues 1-88) (from UniProt P14635 1-88)
